HELM strings list residues between dots; [ac] is acetyl, [am] amide, other brackets name non-standard units.
Assay: general procedure: Boc solid-phase peptide synthesis; Boc-Leu-O-resin; N,N'-diisopropylcarbodiimide (DIC)
Settings: whole synthesis, analytical HPLC (UV monitor), scale 1.0 mmol

## PEPTIDE1{I.Y.L.G.G.P.F.S.P.N.V.L}$$$$V2.0
  final HPLC purity: >95%
